Experimental data reported in PubChem BioAssay AID248 (DTP/NCI, 2004).
The list is a part of this screen's results and no random one: its compounds were picked by chemical class. Other doses and runs of a compound may be missing. T/C gives the treated animals as a percentage of the vehicle group. Some entries give survivors of the animals treated and no T/C: the source files T/C as zero there, which appears to mark a toxic dose or a test without result, not a measured value. Some survivor counts are full or nearly so, which does not show that the dose was tolerated: the source hardly ever lists a survival T/C far under the control, and the zero likely stands for such cases as well. Counts of survivors are from the toxicity check (mostly the fifth day) where no day follows; animals may have died later. Schedule codes are those of the source, taken here to give the interval after Q, in days (D) or hours (H), and the number of doses after X. Some schedule codes hold Z or #, which are not explained here. Where survival is the endpoint, this PubChem deposit counts one and a half times the control or more as active, and values a quarter to a half above the control carry no call in these data; other NCI protocols may use other cut-offs. Some entries were tested several times; the values are given in rising order. Some entries show no survivor count and are marked so; the dose need not have been tolerated. Some T/C values are followed by the survivors on the day toxicity was checked, most often the fifth; without a count or a note in brackets, all were alive then.

Test system: L1210 leukemia ip in BDF1 mice, survival T/C
Experiment: NCI In Vivo Anticancer Drug Screen. Data for tumor model L1210 Leukemia (intraperitoneal) in B6D2F1 (BDF1) mice
Settings: T/C endpoint: mean survival time, higher T/C = longer survival
[1] = dose: 1.15 mg/kg/injection, schedule: Q01DX009 (ip), vehicle: other
[2] = dose: 1.75 mg/kg/injection, schedule: Q01DX009 (ip), vehicle: other
[3] = dose: 6.3 mg/kg/injection, schedule: Q01DX001 (ip), vehicle: saline
[4] = dose: 9.45 mg/kg/injection, schedule: Q01DX001 (ip), vehicle: saline

O=C(O)c1c([N+](=O)[O-])cc([N+](=O)[O-])c(-c2c([N+](=O)[O-])cc([N+](=O)[O-])c(C(=O)O)c2[N+](=O)[O-])c1[N+](=O)[O-].O=C1CC2OCC=C3CN4CCC56c7ccccc7N1C5C2C3CC46
T/C (dose: 0.78 mg/kg/injection, schedule: Q01DX009 (ip), vehicle: Klucel (hydroxypropylcellulose) (HPC)): 98 % of control [survivor count not shown] | T/C (dose: 1.56 mg/kg/injection, schedule: Q01DX009 (ip), vehicle: Klucel (hydroxypropylcellulose) (HPC)): 96 % of control [survivor count not shown] | T/C (dose: 1.56 mg/kg/injection, schedule: Q04DX003 (ip), vehicle: Klucel (hydroxypropylcellulose) (HPC)): 113 % of control [survivor count not shown] | T/C (dose: 3.12 mg/kg/injection, schedule: Q01DX009 (ip), vehicle: Klucel (hydroxypropylcellulose) (HPC)): 91 % of control [survivor count not shown] | T/C (dose: 3.12 mg/kg/injection, schedule: Q04DX003 (ip), vehicle: Klucel (hydroxypropylcellulose) (HPC)): 95 % of control [survivor count not shown]

Cn1cc(N(CCCl)CCCl)c(=O)[nH]c1=O
T/C (dose: 0.19 mg/kg/injection, schedule: Q01DX009 (ip), vehicle: saline): 106 % of control | T/C (dose: 0.19 mg/kg/injection, schedule: Q04DX003 (ip), vehicle: Klucel (hydroxypropylcellulose) (HPC)): 93 % of control | T/C (dose: 0.2 mg/kg/injection, schedule: Q01DX009 (ip), vehicle: Klucel (hydroxypropylcellulose) (HPC)): 106 % of control | T/C (dose: 0.39 mg/kg/injection, schedule: Q01DX009 (ip), vehicle: saline): 106 % of control | T/C (dose: 0.39 mg/kg/injection, schedule: Q04DX003 (ip), vehicle: Klucel (hydroxypropylcellulose) (HPC)): 96 % of control | T/C (dose: 0.4 mg/kg/injection, schedule: Q01DX009 (ip), vehicle: Klucel (hydroxypropylcellulose) (HPC)): 114 % of control | T/C (dose: 0.78 mg/kg/injection, schedule: Q01DX009 (ip), vehicle: saline): 123 % of control | T/C (dose: 0.78 mg/kg/injection, schedule: Q04DX003 (ip), vehicle: Klucel (hydroxypropylcellulose) (HPC)): 105 % of control | T/C (dose: 0.8 mg/kg/injection, schedule: Q01DX009 (ip), vehicle: Klucel (hydroxypropylcellulose) (HPC)): 124 % of control | T/C (dose: 0.9 mg/kg/injection, schedule: Q01DX Z (ip), vehicle: methylcellulose (MC)): 129 % of control | T/C (dose: 1.03 mg/kg/injection, schedule: Q04DX003 (ip), vehicle: saline): 119 % of control | T/C (dose: 1.15 mg/kg/injection, schedule: Q01DX009 (ip), vehicle: Klucel (hydroxypropylcellulose) (HPC)): 145 % of control | T/C [1]: 156 % of control | survivor count [1]: 6 of 6 | T/C (dose: 1.3 mg/kg/injection, schedule: Q01DX Z (ip), vehicle: methylcellulose (MC)): 134 % of control | T/C (dose: 1.56 mg/kg/injection, schedule: Q01DX001 (ip), vehicle: Klucel (hydroxypropylcellulose) (HPC)): 97 % of control | T/C (dose: 1.75 mg/kg/injection, schedule: Q01DX009 (ip), vehicle: Klucel (hydroxypropylcellulose) (HPC)): 129 % of control | T/C [2]: 162 % of control | survivor count [2]: 6 of 6 | T/C (dose: 2.0 mg/kg/injection, schedule: Q01DX Z (ip), vehicle: methylcellulose (MC)): 181 % of control | T/C (dose: 2.07 mg/kg/injection, schedule: Q04DX003 (ip), vehicle: saline): 154 % of control | T/C (dose: 2.6 mg/kg/injection, schedule: Q01DX009 (ip), vehicle: other): 156 % of control | T/C (dose: 2.62 mg/kg/injection, schedule: Q01DX009 (ip), vehicle: Klucel (hydroxypropylcellulose) (HPC)): 137 % of control | survivor count (dose: 2.62 mg/kg/injection, schedule: Q01DX009 (ip), vehicle: other): 6 of 6 | T/C (dose: 2.73 mg/kg/injection, schedule: Q04DX003 (ip), vehicle: Klucel (hydroxypropylcellulose) (HPC)): 152 % of control | T/C (dose: 3.0 mg/kg/injection, schedule: Q01DX Z (ip), vehicle: methylcellulose (MC)): 126 % of control | T/C (dose: 3.12 mg/kg/injection, schedule: Q01DX001 (ip), vehicle: Klucel (hydroxypropylcellulose) (HPC)): 100 % of control | T/C (dose: 4.15 mg/kg/injection, schedule: Q01DX001 (ip), vehicle: saline): 121 and 131 % of control | T/C (dose: 4.15 mg/kg/injection, schedule: Q04DX003 (ip), vehicle: Klucel (hydroxypropylcellulose) (HPC)): 182 % of control | T/C (dose: 4.15 mg/kg/injection, schedule: Q04DX003 (ip), vehicle: saline): 175 % of control | T/C (dose: 6.22 mg/kg/injection, schedule: Q04DX003 (ip), vehicle: Klucel (hydroxypropylcellulose) (HPC)): 117 % of control [5 of 6 alive] | T/C (dose: 6.25 mg/kg/injection, schedule: Q01DX001 (ip), vehicle: Klucel (hydroxypropylcellulose) (HPC)): 94 % of control | T/C [3]: 125 % of control | survivor count [3]: 6 of 6 | survivor count (dose: 9.32 mg/kg/injection, schedule: Q04DX003 (ip), vehicle: Klucel (hydroxypropylcellulose) (HPC)): 5 of 6 | T/C (dose: 9.32 mg/kg/injection, schedule: Q04DX003 (ip), vehicle: saline): 132 % of control | T/C [4]: 156 % of control | survivor count [4]: 6 of 6 | T/C (dose: 12.5 mg/kg/injection, schedule: Q01DX001 (ip), vehicle: Klucel (hydroxypropylcellulose) (HPC)): 158 % of control [5 of 6 alive] | T/C (dose: 14.13 mg/kg/injection, schedule: Q04DX003 (ip), vehicle: Klucel (hydroxypropylcellulose) (HPC)): 97 % of control [5 of 6 alive] | survivor count (dose: 14.13 mg/kg/injection, schedule: Q04DX003 (ip), vehicle: saline): 1 of 6 | survivor count (dose: 21.19 mg/kg/injection, schedule: Q04DX003 (ip), vehicle: Klucel (hydroxypropylcellulose) (HPC)): 5 of 6 | survivor count (dose: 21.19 mg/kg/injection, schedule: Q04DX003 (ip), vehicle: saline): 3 of 6 | survivor count (dose: 25.0 mg/kg/injection, schedule: Q01DX001 (ip), vehicle: Klucel (hydroxypropylcellulose) (HPC)): 4 of 6 | survivor count (dose: 50.0 mg/kg/injection, schedule: Q01DX001 (ip), vehicle: Klucel (hydroxypropylcellulose) (HPC)): 3 of 6

O=C(SCCCl)c1cc([N+](=O)[O-])cc([N+](=O)[O-])c1
T/C (dose: 10.0 mg/kg/injection, schedule: Q01DX010 (ip), vehicle: other): 95 % of control | T/C (dose: 30.0 mg/kg/injection, schedule: Q01DX010 (ip), vehicle: other): 93 % of control | T/C (dose: 100.0 mg/kg/injection, schedule: Q01DX010 (ip), vehicle: other): 90 % of control | T/C (dose: 300.0 mg/kg/injection, schedule: Q01DX010 (ip), vehicle: other): 109 % of control | survivor count (dose: 300.0 mg/kg/injection, schedule: Q01DX Z (ip), vehicle: saline): 6 of 6 | T/C (dose: 500.0 mg/kg/injection, schedule: Q01DX Z (ip), vehicle: saline): 103 % of control

Nc1cc([As](=O)(O)O)ccc1O
T/C (dose: 2.5 mg/kg/injection, schedule: Q01DX009 (ip), vehicle: saline with Tween-80): 111 % of control | T/C (dose: 5.0 mg/kg/injection, schedule: Q01DX009 (ip), vehicle: saline with Tween-80): 97 % of control | T/C (dose: 10.0 mg/kg/injection, schedule: Q01DX009 (ip), vehicle: saline with Tween-80): 97 % of control

O=P(OCCCl)(N(CCCl)CCCl)N1CC1 (stereo not given)
T/C (dose: 4.0 mg/kg/injection, schedule: Q01DX Z (ip), vehicle: saline): 97 % of control | T/C (dose: 8.0 mg/kg/injection, schedule: Q01DX Z (ip), vehicle: saline): 124 % of control | T/C (dose: 16.0 mg/kg/injection, schedule: Q01DX Z (ip), vehicle: saline): 93 % of control | T/C (dose: 25.0 mg/kg/injection, schedule: Q04DX003 (ip), vehicle: saline): 100 % of control | survivor count (dose: 32.0 mg/kg/injection, schedule: Q01DX Z (ip), vehicle: saline): 6 of 6 | T/C (dose: 50.0 mg/kg/injection, schedule: Q04DX003 (ip), vehicle: saline): 98 % of control | survivor count (dose: 62.5 mg/kg/injection, schedule: Q01DX010 (ip), vehicle: saline): 6 of 6 | survivor count (dose: 64.0 mg/kg/injection, schedule: Q01DX Z (ip), vehicle: saline): 0 of 6 | T/C (dose: 100.0 mg/kg/injection, schedule: Q04DX003 (ip), vehicle: saline): 93 % of control | survivor count (dose: 125.0 mg/kg/injection, schedule: Q01DX010 (ip), vehicle: saline): 1 of 6 | survivor count (dose: 250.0 mg/kg/injection, schedule: Q01DX010 (ip), vehicle: saline): 0 of 6
